The source of these data is US7923535B2, “Tryptophan as a functional replacement for ADP-ribose-arginine in recombinant proteins” (The United States of America as represented by the …, priority 2002, dated 2011).

Some compounds share one wording; it may come from a single statement.

The series is described as follows: Chemical sensitivity of ADP-ribose bonds to acid, hydroxylamine and mercuric chloride. More on the design: species or system rat. Conditions: auto-ADP-ribosylated protein, 2 hours at 37° C.; for release of [^32P]ADP-ribose radiolabel by hydroxylamine: 2M NH2OH.

B1: ART2a(M81R,Y204R): rat ART2a with M81R and Y204R substitutions (protein, UniProt P17982 21-246, looked up, variant M81R Y204R)
T-cell …: LTGPLMLDTAPNAFDDQYEGCVNKMEEKAPLLLKEDFNKSEKLKVAWEEAKKRWNNIKPSRSYPKGFNDFHGTALVAYTGSIGVDFNRAVREFKENPGQFHYKAFHYYLTRALQLLSNGDCHSVYRGTKTRFHYTGAGSVRFGQFTSSSLSKTVAQSPEFFSDDGTLFIIKTCLGVYIKEFSFRPDQEEVLIPGYEVYQKVRTQGYNEIFLDSPKRKKSNYNCLYS
Take B1: the “release of [^32P]ADP-ribose radiolabel by hydroxylamine” value (from here on “release of [^32P]ADP-ribose radiolabel”) was “released the [^32P]ADP-ribose radiolabel”.

B2: ART2a(N58A,Y204R): rat ART2a with N58A and Y204R substitutions, non-glycosylated (protein, UniProt P17982 21-246, looked up, variant N58A Y204R)
T-cell …: LTGPLMLDTAPNAFDDQYEGCVNKMEEKAPLLLKEDFAKSEKLKVAWEEAKKRWNNIKPSMSYPKGFNDFHGTALVAYTGSIGVDFNRAVREFKENPGQFHYKAFHYYLTRALQLLSNGDCHSVYRGTKTRFHYTGAGSVRFGQFTSSSLSKTVAQSPEFFSDDGTLFIIKTCLGVYIKEFSFRPDQEEVLIPGYEVYQKVRTQGYNEIFLDSPKRKKSNYNCLYS
As to B2, the “release of [^32P]ADP-ribose radiolabel” value is “released the [^32P]ADP-ribose radiolabel”.

B3: ART2b(R204W): rat ART2b with arginine-to-tryptophan substitution at position 204 (protein, UniProt P20974 21-246, looked up, variant R204W)
T-cell …: LTGPLMLDTAPNAFDDQYEGCVNKMEEKAPLLLQEDFNMNAKLKVAWEEAKKRWNNIKPSRSYPKGFNDFHGTALVAYTGSIAVDFNRAVREFKENPGQFHYKAFHYYLTRALQLLSNGDCHSVYRGTKTRFHYTGAGSVRFGQFTSSSLSKKVAQSQEFFSDHGTLFIIKTCLGVYIKEFSFWPDQEEVLIPGYEVYQKVRTQGYNEIFLDSPKRKKSNYNCLYS
Regarding B3, the “release of [^32P]ADP-ribose by hydroxylamine, mercury chloride or acid” value is recorded as “not released”.

B4: ART2b: rat ADP-ribosyltransferase ART2b (RT6.2), SEQ ID NO:12, wild type (protein, listed as Rattus norvegicus)
chain: MPSNICKFFLTWWLIQQVTGLTGPLMLDTAPNAFDDQYEGCVNKMEEKAPLLLQEDFNMNAKLKVAWEEAKKRWNNIKPSRSYPKGFNDFHGTALVAYTGSIAVDFNRAVREFKENPGQFHYKAFHYYLTRALQLLSNGDCHSVYRGTKTRFHYTGAGSVRFGQFTSSSLSKKVAQSQEFFSDHGTLFIIKTCLGVYIKEFSFRPDQEEVLIPGYEVYQKVRTQGYNEIFLDSPKRKKSNYNCLYSSAGARESCVSLFLVVLPSLLVQLLCLAEP
As for B4, the “release of [^32P]ADP-ribose radiolabel” value is “released the [^32P]ADP-ribose radiolabel”.
